These results are taken from PubChem BioAssay AID624134 (Broad Institute, 2012).

The whole screen tested about 1,600 compounds, of which about 1,100 (69%) were called active. So high a share suggests a set chosen from earlier hits. The entries are a selection whose mix differs from that of the whole data set. Potency and affinity values are given separately. Records with an inconclusive call do not appear.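 The calls were made as follows: active = signal drop with fitted half-maximal concentration no higher than twice the top valid tested concentration; inconclusive = flat curve with 30 to 70% signal loss, or poor fit; inactive = the rest, including signal rises and flat curves within 30%.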

The assay in a line: HepG2 cell cytotoxicity, dose response, cytotoxicity control for Shn3 inhibitor project, CellTiter-Glo, cherry-picked (AID 624134).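 Also: 0% = median of neutral control wells and -100% = median of positive control wells.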 To be noted: HepG2 viability, CellTiter-Glo ATP luminescence, 48 h; at 35 µM (top of the series).
Consider `CC1=CC2OC3CC4OC(=O)C=CC=CC(=O)OCCC(C)C(O)C(=O)OCC2(CC1O)C4(C)C31CO1` (stereo not given), for which the activity change, negative = cytotoxicity was inactive: -24.9%.
`CC(=O)O[C@H]1CCC2C3CC[C@H]4[C@@H](O)[C@H](O)CC[C@]4(C)C3CC[C@@]21C` (stereo not given in full): the activity change, negative = cytotoxicity is inactive: -9.85%.
The figure for `C[C@]12CCC3C(CC[C@H]4C[C@H](O)CC[C@]34C)C1CCC2=O` (stereo not given in full) is inactive: -10.3%; for `COc1ccc(CC2NCC(O)C2OC(C)=O)cc1` (stereo not given) it is inactive: -27.9%.
The figure for `CC1=CC2OC3CC4OC(=O)C=CC=CC(C(C)O)OCC(O)C(C)CC(=O)OCC2(CC1O)C4(C)C31CO1` (stereo not given) is inactive: -36.1%.
Turning to `COC(=O)C12OCC34C(CC5C(C)=C(O)C(=O)CC5(C)C3C(O)C1O)OC(=O)C(OC(=O)/C=C(\C)C(C)C)C24` (stereo not given), the activity change, negative = cytotoxicity is inactive: -30%.
The figure for `CCOC(=O)C1C(=O)NC2(C)CC1c1cc(OC)ccc1O2` (stereo not given) is inactive: 4.96%; for `COc1cccc2c1O[C@H]1C(=O)CC[C@H]3CN(C)CCC231` (stereo not given in full) it is inactive: 4.28%; for `C[C@@H]1C[C@@H]([C@H](O)CC2CC(=O)NC(=O)C2)C(=O)[C@@H](C)C1` it is inactive: -29.7%.
In the case of `CC1=CC2OC3CC4OC(=O)C=CC=CC(C(C)O)OCC(O)C5(C)OC5C(=O)OCC2(CC1O)C4(C)C31CO1` (stereo not given) it was inactive: -27.1%; in that of `CC1CC(C)(O)CC(C(O)CC2CC(=O)NC(=O)C2)C1=O` (stereo not given), inactive: -21.6%.
`COC(=O)C1=C(c2ccc(OCc3ccccc3)cc2)C[C@@H]2CC[C@H]1N2C(=O)NCc1ccc(OC)c(OC)c1`: the activity change, negative = cytotoxicity is inactive: -13.6%.
The figure for `CC(C)N1CCN(Cc2c[nH]c3ccccc23)CC1CCO` (stereo not given) is inactive: -3.14%; for `CCN1C[C@]2(COC)CC[C@H](OC)[C@@]34C1[C@]1(OCO[C@@]15C[C@H](OC)[C@H]1C[C@@H]3[C@@H]5[C@H]1OC)[C@@H](O)[C@H]24` it is inactive: 5.27%.
With `CC(=O)OC1(C)CC(C)C(=O)C(C(O)CC2CC(=O)NC(=O)C2)C1` (stereo not given), the activity change, negative = cytotoxicity is inactive: -14.8%.
In the case of `CC(C)(O)/C=C/C(=O)C(C)(O)C1C(O)CC2(C)C3CC=C4C(C=C(O)C(=O)C4(C)C)C3(C)C(=O)CC12C` (stereo not given) it was inactive: -20.6%; in that of `COC(=O)C1=C(c2ccc(F)cc2OCc2ccccc2)C[C@@H]2CC[C@H]1N2C(=O)NC1Cc2ccccc2C1`, inactive: -14.5%.
The figure for `CCC(C)(O)C(=O)OC1C(=O)OC2CC3C(C)=CC(=O)C(O)C3(C)C3C4(O)OCC23C1C(C)C4O` (stereo not given) is inactive: -21.9%; for `COC(=O)C1=C(c2ccc(OCc3ccccc3)cc2)C[C@@H]2CC[C@H]1N2C(=O)NCCCCc1ccccc1` it is inactive: -7.07%.
Regarding `COC(=O)C1=C(c2ccc3ccccc3c2)C[C@@H]2CC[C@H]1N2C(=O)NCC1CC1`, the activity change, negative = cytotoxicity is inactive: -2.69%.
